Values from PubChem BioAssay AID1224827 (NIAID, 2016)
The deposit covers about 3,800 reagents; below is an unselected part. Over the whole deposit, about 2,200 (57%) got an active call. 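Active means a strong reporter change in either direction; calls are per siRNA, not per gene; qiagen siRNAs gave weaker effects.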 Reagents against one gene are numbered here.

Assay: 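Identify regulators of the macrophage TNF-alpha response to bacterial LPS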 (follow-up of hits)
Cells: RAW264.7 G9 mouse macrophage reporter clone
Knock-down reagent: single siRNA against mouse genes, 100 nM siRNA
Time to read-out: siRNA for 2 days, then LPS about 16 h
Conditions: bacterial lipopolysaccharide (LPS), 10 ng/ml, cells fixed after overnight (about 16 h) stimulation
Detection: 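TNF promoter reporter red fluorescence in nuclei, background subtracted, normalised per plate and to non-targeting control siRNA, as z-scores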
Scale: TNF reporter z-score, mean and TNF reporter z-score: higher = stronger Tnf promoter reporter signal; gene median z, three same-vendor siRNAs: higher = stronger Tnf reporter signal for the gene
Rule for the call: 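An siRNA is called active when its mean z-score over replicates is at least +2 or at most -2; control wells get no call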

gene	reagent no.	TNF reporter z-score, mean	gene median z, three same-vendor siRNAs	TNF reporter z-score, repeat 1	TNF reporter z-score, repeat 2	call
Ppp1r3c (protein phosphatase 1, regulatory subunit 3C)	1	4.88	-1.64	3.95	5.82	active
Ppp1r3c (protein phosphatase 1, regulatory subunit 3C)	2	-1.64	-1.64	-1.93	-1.36	inactive
Ppp1r3c (protein phosphatase 1, regulatory subunit 3C)	3	-3.6	-1.64	-3.57	-3.62	active
Ppp1r3c (protein phosphatase 1, regulatory subunit 3C)	4	3.89	1.36	6.4	1.38	active
Ppp1r3c (protein phosphatase 1, regulatory subunit 3C)	5	1.46	1.36	2.63	0.297	inactive
Ppp1r3c (protein phosphatase 1, regulatory subunit 3C)	6	0.253	1.36	1.35	-0.84	inactive
Or5w20 (olfactory receptor family 5 subfamily W member 20)	1	-3.21	-3.91	-4.52	-1.91	active
Or5w20 (olfactory receptor family 5 subfamily W member 20)	2	-3.75	-3.91	-4.24	-3.26	active
Or5w20 (olfactory receptor family 5 subfamily W member 20)	3	-3.91	-3.91	-3.95	-3.88	active
Or5w20 (olfactory receptor family 5 subfamily W member 20)	4	2.4	-1.42	4.96	-0.161	active
Or5w20 (olfactory receptor family 5 subfamily W member 20)	5	-1.42	-1.42	-1.44	-1.41	inactive
Or5w20 (olfactory receptor family 5 subfamily W member 20)	6	-2.65	-1.42	-3.49	-1.81	active
Adipoq (adiponectin, C1Q and collagen domain containing)	1	-2.48	-3.31	-3.84	-1.11	active
Adipoq (adiponectin, C1Q and collagen domain containing)	2	-2.69	-3.31	-2.78	-2.6	active
Adipoq (adiponectin, C1Q and collagen domain containing)	3	-4.88	-3.31	-5.48	-4.27	active
Adipoq (adiponectin, C1Q and collagen domain containing)	4	6.82	-0.405	11.2	2.48	active
Adipoq (adiponectin, C1Q and collagen domain containing)	5	-0.405	-0.405	0.0878	-0.897	inactive
Adipoq (adiponectin, C1Q and collagen domain containing)	6	-2.94	-0.405	-3.42	-2.45	active
Aldh1a2 (aldehyde dehydrogenase family 1, subfamily A2)	1	-3.43	-3.77	-3.84	-3.03	active
Aldh1a2 (aldehyde dehydrogenase family 1, subfamily A2)	2	-3.64	-3.77	-3.58	-3.7	active
Aldh1a2 (aldehyde dehydrogenase family 1, subfamily A2)	3	-5.21	-3.77	-5.11	-5.31	active
Aldh1a2 (aldehyde dehydrogenase family 1, subfamily A2)	4	1.66	0.548	3.22	0.105	inactive
Aldh1a2 (aldehyde dehydrogenase family 1, subfamily A2)	5	1.6	0.548	3.66	-0.463	inactive
Aldh1a2 (aldehyde dehydrogenase family 1, subfamily A2)	6	0.113	0.548	0.991	-0.765	inactive
Or4a68 (olfactory receptor family 4 subfamily A member 68)	1	-1.78	-3.08	-1.53	-2.03	inactive
Or4a68 (olfactory receptor family 4 subfamily A member 68)	2	-2.19	-3.08	-4.13	-0.258	active
Or4a68 (olfactory receptor family 4 subfamily A member 68)	3	-4.73	-3.08	-4.47	-5	active
Or4a68 (olfactory receptor family 4 subfamily A member 68)	4	3.69	-1.8	6.24	1.14	active
Or4a68 (olfactory receptor family 4 subfamily A member 68)	5	-1.8	-1.8	-1.97	-1.62	inactive
Or4a68 (olfactory receptor family 4 subfamily A member 68)	6	-3.83	-1.8	-5.3	-2.35	active
Apool (apolipoprotein O-like)	1	1.09	-1.53	-0.563	2.74	inactive
Apool (apolipoprotein O-like)	2	-1.53	-1.53	-0.625	-2.44	inactive
Apool (apolipoprotein O-like)	3	-5.56	-1.53	-4.96	-6.15	active
Apool (apolipoprotein O-like)	4	2.66	-0.996	5.09	0.228	active
Apool (apolipoprotein O-like)	5	-0.996	-0.996	-0.758	-1.23	inactive
Apool (apolipoprotein O-like)	6	-2.62	-0.996	-1.95	-3.3	active
Trmt9b (tRNA methyltransferase 9B)	1	5.24	-2.67	6.23	4.26	active
Trmt9b (tRNA methyltransferase 9B)	2	-2.78	-2.67	-2.54	-3.03	active
Trmt9b (tRNA methyltransferase 9B)	3	-3.04	-2.67	-2.8	-3.28	active
Trmt9b (tRNA methyltransferase 9B)	4	3.89	-0.821	8.25	-0.463	active
Trmt9b (tRNA methyltransferase 9B)	5	1.25	-0.821	3.67	-1.18	inactive
Trmt9b (tRNA methyltransferase 9B)	6	-3.2	-0.821	-2.36	-4.05	active
Mthfsd (methenyltetrahydrofolate synthetase domain containing)	1	1.91	-2.35	0.227	3.59	inactive
Mthfsd (methenyltetrahydrofolate synthetase domain containing)	2	-2.35	-2.35	-2.17	-2.53	active
Mthfsd (methenyltetrahydrofolate synthetase domain containing)	3	-3.96	-2.35	-3.86	-4.06	active
Mthfsd (methenyltetrahydrofolate synthetase domain containing)	4	-0.532	-1.06	-0.23	-0.834	inactive
Mthfsd (methenyltetrahydrofolate synthetase domain containing)	5	-1.06	-1.06	-0.987	-1.14	inactive
Mthfsd (methenyltetrahydrofolate synthetase domain containing)	6	-1.3	-1.06	-1.21	-1.39	inactive
Chchd2 (coiled-coil-helix-coiled-coil-helix domain containing 2)	1	-0.228	-0.863	2.37	-2.83	inactive
Chchd2 (coiled-coil-helix-coiled-coil-helix domain containing 2)	2	0.475	-0.863	-0.846	1.79	inactive
Chchd2 (coiled-coil-helix-coiled-coil-helix domain containing 2)	3	-1.09	-0.863	-1.3	-0.88	inactive
Chchd2 (coiled-coil-helix-coiled-coil-helix domain containing 2)	4	3.12	0.506	5.31	0.936	active
Chchd2 (coiled-coil-helix-coiled-coil-helix domain containing 2)	5	2.24	0.506	4.41	0.0754	active
Chchd2 (coiled-coil-helix-coiled-coil-helix domain containing 2)	6	-3.26	0.506	-3.62	-2.89	active
Lyn (Lyn proto-oncogene, Src family tyrosine kinase)	1	0.608	-1.52	-1.28	2.5	inactive
Lyn (Lyn proto-oncogene, Src family tyrosine kinase)	2	-1.41	-1.52	-1.06	-1.76	inactive
Lyn (Lyn proto-oncogene, Src family tyrosine kinase)	3	-3.57	-1.52	-3.95	-3.19	active
Lyn (Lyn proto-oncogene, Src family tyrosine kinase)	4	1.72	1.04	2.06	1.38	inactive
Lyn (Lyn proto-oncogene, Src family tyrosine kinase)	5	1.13	1.04	2.07	0.201	inactive
Lyn (Lyn proto-oncogene, Src family tyrosine kinase)	6	-0.939	1.04	0.71	-2.59	inactive
Brs3 (bombesin-like receptor 3)	1	2.09	-1.48	0.875	3.31	active
Brs3 (bombesin-like receptor 3)	2	-1.48	-1.48	-1.64	-1.31	inactive
Brs3 (bombesin-like receptor 3)	3	-3.17	-1.48	-3.64	-2.7	active
Brs3 (bombesin-like receptor 3)	4	2.27	0.145	3.45	1.1	active
Brs3 (bombesin-like receptor 3)	5	0.0986	0.145	1.27	-1.07	inactive
Brs3 (bombesin-like receptor 3)	6	-1.03	0.145	-0.809	-1.26	inactive
Sytl5 (synaptotagmin-like 5)	1	0.747	-3.17	1.07	0.423	inactive
Sytl5 (synaptotagmin-like 5)	2	-3.34	-3.17	-4.92	-1.76	active
Sytl5 (synaptotagmin-like 5)	3	-4.6	-3.17	-4.58	-4.61	active
Sytl5 (synaptotagmin-like 5)	4	2.99	0.771	4.95	1.03	active
Sytl5 (synaptotagmin-like 5)	5	0.415	0.771	1.23	-0.405	inactive
Sytl5 (synaptotagmin-like 5)	6	-0.378	0.771	0.515	-1.27	inactive
Dennd1c (DENN domain containing 1C)	1	4.72	-3.12	4.74	4.69	active
Dennd1c (DENN domain containing 1C)	2	-3.12	-3.12	-3.02	-3.21	active
Dennd1c (DENN domain containing 1C)	3	-3.5	-3.12	-3.74	-3.26	active
Dennd1c (DENN domain containing 1C)	4	1.71	-0.965	3.84	-0.42	inactive
Dennd1c (DENN domain containing 1C)	5	-0.774	-0.965	0.173	-1.72	inactive
Dennd1c (DENN domain containing 1C)	6	-2.72	-0.965	-3.94	-1.51	active

13 of these entries, reformatted:
{"gene": "Adipoq (adiponectin, C1Q and collagen domain containing)", "reagent no.": 5, "TNF reporter z-score, mean": -0.405, "gene median z, three same-vendor siRNAs": -0.405, "TNF reporter z-score, repeat 1": 0.0878, "TNF reporter z-score, repeat 2": -0.897, "call": "inactive"}
{"gene": "Adipoq (adiponectin, C1Q and collagen domain containing)", "reagent no.": 6, "TNF reporter z-score, mean": -2.94, "gene median z, three same-vendor siRNAs": -0.405, "TNF reporter z-score, repeat 1": -3.42, "TNF reporter z-score, repeat 2": -2.45, "call": "active"}
{"gene": "Aldh1a2 (aldehyde dehydrogenase family 1, subfamily A2)", "reagent no.": 1, "TNF reporter z-score, mean": -3.43, "gene median z, three same-vendor siRNAs": -3.77, "TNF reporter z-score, repeat 1": -3.84, "TNF reporter z-score, repeat 2": -3.03, "call": "active"}
{"gene": "Aldh1a2 (aldehyde dehydrogenase family 1, subfamily A2)", "reagent no.": 2, "TNF reporter z-score, mean": -3.64, "gene median z, three same-vendor siRNAs": -3.77, "TNF reporter z-score, repeat 1": -3.58, "TNF reporter z-score, repeat 2": -3.7, "call": "active"}
{"gene": "Aldh1a2 (aldehyde dehydrogenase family 1, subfamily A2)", "reagent no.": 3, "TNF reporter z-score, mean": -5.21, "gene median z, three same-vendor siRNAs": -3.77, "TNF reporter z-score, repeat 1": -5.11, "TNF reporter z-score, repeat 2": -5.31, "call": "active"}
{"gene": "Aldh1a2 (aldehyde dehydrogenase family 1, subfamily A2)", "reagent no.": 4, "TNF reporter z-score, mean": 1.66, "gene median z, three same-vendor siRNAs": 0.548, "TNF reporter z-score, repeat 1": 3.22, "TNF reporter z-score, repeat 2": 0.105, "call": "inactive"}
{"gene": "Aldh1a2 (aldehyde dehydrogenase family 1, subfamily A2)", "reagent no.": 5, "TNF reporter z-score, mean": 1.6, "gene median z, three same-vendor siRNAs": 0.548, "TNF reporter z-score, repeat 1": 3.66, "TNF reporter z-score, repeat 2": -0.463, "call": "inactive"}
{"gene": "Aldh1a2 (aldehyde dehydrogenase family 1, subfamily A2)", "reagent no.": 6, "TNF reporter z-score, mean": 0.113, "gene median z, three same-vendor siRNAs": 0.548, "TNF reporter z-score, repeat 1": 0.991, "TNF reporter z-score, repeat 2": -0.765, "call": "inactive"}
{"gene": "Or4a68 (olfactory receptor family 4 subfamily A member 68)", "reagent no.": 1, "TNF reporter z-score, mean": -1.78, "gene median z, three same-vendor siRNAs": -3.08, "TNF reporter z-score, repeat 1": -1.53, "TNF reporter z-score, repeat 2": -2.03, "call": "inactive"}
{"gene": "Or4a68 (olfactory receptor family 4 subfamily A member 68)", "reagent no.": 2, "TNF reporter z-score, mean": -2.19, "gene median z, three same-vendor siRNAs": -3.08, "TNF reporter z-score, repeat 1": -4.13, "TNF reporter z-score, repeat 2": -0.258, "call": "active"}
{"gene": "Or4a68 (olfactory receptor family 4 subfamily A member 68)", "reagent no.": 3, "TNF reporter z-score, mean": -4.73, "gene median z, three same-vendor siRNAs": -3.08, "TNF reporter z-score, repeat 1": -4.47, "TNF reporter z-score, repeat 2": -5, "call": "active"}
{"gene": "Or4a68 (olfactory receptor family 4 subfamily A member 68)", "reagent no.": 4, "TNF reporter z-score, mean": 3.69, "gene median z, three same-vendor siRNAs": -1.8, "TNF reporter z-score, repeat 1": 6.24, "TNF reporter z-score, repeat 2": 1.14, "call": "active"}
{"gene": "Or4a68 (olfactory receptor family 4 subfamily A member 68)", "reagent no.": 5, "TNF reporter z-score, mean": -1.8, "gene median z, three same-vendor siRNAs": -1.8, "TNF reporter z-score, repeat 1": -1.97, "TNF reporter z-score, repeat 2": -1.62, "call": "inactive"}
